PubChem BioAssay AID504774, Drosophila RNAi Screening Center – 2011

- Purpose: 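Fly genes whose loss alters survival after alkylation damage to DNA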 (primary screen)
- Cells: Drosophila Kc167 cells
- Knock-down reagent: long dsRNA against Drosophila genes, about 0.25 µg dsRNA per well
- Timing: about 6 days: 3 days knock-down, then 3 days with or without MMS
- Conditions: methyl methanesulphonate 0.004% (w/v) for 3 days after knock-down
- Read-out: 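ATP-dependent luminescence as a measure of live cells in MMS-exposed wells, quantile normalised within each plate, with replicate values also given as a mean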
- Direction: mean viability with MMS and viability with MMS: higher = more surviving cells after MMS
The deposit covers about 23,000 reagents; this is an unselected part of those that have a named target and a result. 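Values are quantile-normalised luminescence on an arbitrary scale; higher means more cells surviving MMS.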 Not all columns of the deposit are shown.

The opening 2 entries, ahead of the listing:
target gene	dsRNA	mean viability with MMS	viability with MMS, replicate 1
CG3277	DRSC00588	3.75e6	4.05e6
CG32793	DRSC18145	3.71e6	4.20e6

The listing, from the start:
target gene	dsRNA	mean viability with MMS	viability with MMS, replicate 1
CG3277	DRSC00588	3.75e6	4.05e6
CG32793	DRSC18145	3.71e6	4.20e6
CG32793	DRSC18194	3.56e6	4.02e6
S-Lap1	DRSC10627	3.69e6	4.24e6
CG13367	DRSC18485	3.64e6	4.04e6
CG13367	DRSC18486	3.63e6	4.07e6
CG13204	DRSC06328	3.56e6	4.11e6
CG16779	DRSC15153	3.52e6	3.97e6
CG3819	DRSC10378	3.32e6	3.75e6
CNBP	DRSC04116	3.58e6	3.89e6
CNBP	DRSC04419	3.85e6	4.24e6
CNBP	DRSC21317	3.43e6	3.85e6
CG31515	DRSC13610	3.24e6	3.73e6
mh	DRSC20168	3.58e6	4.10e6
CG9933	DRSC03276	3.56e6	4.08e6
Rpt4R	DRSC10791	3.70e6	4.10e6
CG14286	DRSC14767	3.52e6	4.08e6
CG42360	DRSC04224	3.43e6	3.91e6
CG8960	DRSC08612	3.44e6	3.92e6
Neb-cGP	DRSC17991	3.58e6	4.04e6
Cpr11A	DRSC19861	3.53e6	3.98e6
Pgm2a	DRSC07068	3.60e6	3.97e6
CG5961	DRSC15927	3.44e6	3.81e6
PNUTS	DRSC00638	3.45e6	3.69e6
PNUTS	DRSC22136	3.52e6	3.97e6
topi	DRSC16431	3.50e6	4.02e6
slow	DRSC08589	3.71e6	4.40e6
slow	DRSC08590	3.43e6	3.87e6
